B1: WDR90-N(1-225) (domain or fragment, UniProt Q96KV7-1 1-225)
chain: MARAWQHPFLNVFRHFRVDEWKRSAKQGDVAVVTDKTLKGAVYRIRGSVSAANYIQLPKSSTQSLGLTGRYLYVLFRPLPSKHFVIHLDVSSKDNQVIRVSFSNLFKEFKSTATWLQFPLVLEARTPQRDLVGLAPSGARWTCLQLDLQDVLLVYLNRCYGHLKSIRLCASLLVRNLYTSDLCFEPAISGAQWAKLPVTPMPREMAFPVPKGESWHDRYIHVRFP
B2: drPOC16(1-243) (domain or fragment, UniProt F1RA29 1-243)
chain: MSSKALWQQPYVNIFKHMKIEEWKKVSKEGDVSLYMDKNLKCSVFSIRGSIQASNYILLPKTSSQTLGLTGRYLYLLFKPSPNKHFIVHLDIAAEEGQVIRVSFSNLFKEFKSTATWLQFPFLCGAAHGSVDENTSTTAKQGLVGPAPWSTRWTCLTMDLRYVLSVYLNRTHSHLKSIKLCANMSVKNIITSDLLFDPGLSFSEFRQSGVMLPDGSAPMPREMCFPVPKGQSWHHLYDYIRFP
B3: xtPOC16(1-245) (domain or fragment, UniProt A0JP70 1-245)
chain: MAGVWQHPFVNVFKHLRLEEWKKSSKEGDVTSVMDKTLKCTVYRIRGSIPAGNYIQLPKTSSQSLGLTGRYLYILFKPLPGKHFVVHIDVSAEDGQTVRISFSNLFKEFKSTATWLQFPFVCGAIKGSVYDSTAQGARQGMVGPAPSGSRWTCLLLDVQYILSLYLSRRYSHLRSAKLCSNLLVRNLMTSDLLFNPEVNFMEARHAKTLPDGISPMPREMSFPVPKGEKWHDLYDFIMFPSDSSK

Here are results for three molecules from article PMC7500955.

No constants are given. Whether binding was seen depends on the method and setting. A result given as binding can be weak or reduced; the word gives no strength.

The target in the first assay is pure bovine brain tubulin (Bovine taurus). Nature of the assay: co-sedimentation; tubulin-binding assay: free tubulin at 10 µM with around 15 µM of each protein construct in MES buffer, 15 min on ice; 13,000 x g, 4°C, 20 min; supernatant and pellet on Coomassie-stained SDS-PAGE; both purified.
Consider B1, for which the binding result is reported as “binds”.
The same measure, in the same setting: under B2 stands “binds”; under B3, “binds”.

For the next assay the target is unchanged. The assay is described as follows: co-sedimentation; microtubule-pelleting assay: taxol-stabilized microtubules assembled in BRB80 (80 mM PIPES-KOH pH 6.8, 1 mM MgCl2, 1 mM EGTA) from bovine brain tubulin at 1 mg/mL; 50 µL MTs with 20 µL protein at 1 mg/mL, 2 hr, room temperature; centrifuged on a taxol-glycerol cushion (8000 rpm, 30°C, 20 min); supernatant and pellet on Coomassie-stained SDS-PAGE; both purified.
As for B1, the binding entry is given as “binds”.
On the same count and under the same terms, under B2 stands “binds”; under B3, “binds”.
